Assay results from patent US20170240632A1, “COMPOSITIONS AND METHODS FOR IDENTIFYING AND TREATING CACHEXIA OR PRE-CACHEXIA” (THE BROAD INSTITUTE INC., priority 2014, published 2017).
At least one structure is not confirmed: it was looked up by name or label, or the drawing left a doubt.

System: adipocytes
Assay: Inhibition of lipid loss in adipocytes (FIG. 23)
Assay type: cell-based
Conditions: inhibition of RAGE signaling

## CC(=O)Nc1cccc(-n2c(=O)n(C3CC3)c(=O)c3c(Nc4ccc(I)cc4F)n(C)c(=O)c(C)c32)c1 [Trametinib]
  inhibition of lipid loss in adipocytes: inhibits lipid loss
